Our source for the binding values is article doi:10.1101/2020.05.29.123034.

Protein sequences, listed by entry. Tags and fused reporters are not part of them. Residues count along the entry.
UniProt P62813, residues 28-455: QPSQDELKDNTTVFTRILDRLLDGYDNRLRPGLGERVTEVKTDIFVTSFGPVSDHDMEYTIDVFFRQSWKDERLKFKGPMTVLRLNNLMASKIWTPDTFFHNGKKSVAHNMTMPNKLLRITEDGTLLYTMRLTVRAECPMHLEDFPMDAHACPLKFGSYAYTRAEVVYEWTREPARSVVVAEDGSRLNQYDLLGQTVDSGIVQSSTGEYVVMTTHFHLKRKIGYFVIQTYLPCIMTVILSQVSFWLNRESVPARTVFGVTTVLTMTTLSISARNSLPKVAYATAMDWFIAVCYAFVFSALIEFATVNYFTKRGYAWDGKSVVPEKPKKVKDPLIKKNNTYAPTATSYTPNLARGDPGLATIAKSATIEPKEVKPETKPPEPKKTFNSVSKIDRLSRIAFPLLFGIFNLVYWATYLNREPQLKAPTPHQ
UniProt O60331: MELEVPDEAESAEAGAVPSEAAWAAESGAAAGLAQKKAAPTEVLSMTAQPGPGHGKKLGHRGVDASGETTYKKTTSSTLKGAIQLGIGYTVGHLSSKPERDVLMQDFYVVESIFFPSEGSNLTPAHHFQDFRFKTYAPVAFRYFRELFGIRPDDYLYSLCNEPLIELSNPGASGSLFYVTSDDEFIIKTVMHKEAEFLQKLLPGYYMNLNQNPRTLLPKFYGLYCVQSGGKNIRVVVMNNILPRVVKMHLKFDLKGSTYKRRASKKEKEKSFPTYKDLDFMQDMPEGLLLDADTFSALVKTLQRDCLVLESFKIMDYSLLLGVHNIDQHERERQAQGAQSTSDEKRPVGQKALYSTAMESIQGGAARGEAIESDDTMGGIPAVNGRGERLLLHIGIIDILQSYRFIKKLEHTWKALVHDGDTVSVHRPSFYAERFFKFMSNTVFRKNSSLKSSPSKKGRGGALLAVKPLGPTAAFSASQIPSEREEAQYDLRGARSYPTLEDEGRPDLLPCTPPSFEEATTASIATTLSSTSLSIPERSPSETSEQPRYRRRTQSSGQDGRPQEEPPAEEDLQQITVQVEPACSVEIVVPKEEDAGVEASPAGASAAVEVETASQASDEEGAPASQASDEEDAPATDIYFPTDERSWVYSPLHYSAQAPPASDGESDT

Experiment [1] addresses T1, EGFP-MPP2 (mouse) (UniProt Q9WV34).
T1 sequence: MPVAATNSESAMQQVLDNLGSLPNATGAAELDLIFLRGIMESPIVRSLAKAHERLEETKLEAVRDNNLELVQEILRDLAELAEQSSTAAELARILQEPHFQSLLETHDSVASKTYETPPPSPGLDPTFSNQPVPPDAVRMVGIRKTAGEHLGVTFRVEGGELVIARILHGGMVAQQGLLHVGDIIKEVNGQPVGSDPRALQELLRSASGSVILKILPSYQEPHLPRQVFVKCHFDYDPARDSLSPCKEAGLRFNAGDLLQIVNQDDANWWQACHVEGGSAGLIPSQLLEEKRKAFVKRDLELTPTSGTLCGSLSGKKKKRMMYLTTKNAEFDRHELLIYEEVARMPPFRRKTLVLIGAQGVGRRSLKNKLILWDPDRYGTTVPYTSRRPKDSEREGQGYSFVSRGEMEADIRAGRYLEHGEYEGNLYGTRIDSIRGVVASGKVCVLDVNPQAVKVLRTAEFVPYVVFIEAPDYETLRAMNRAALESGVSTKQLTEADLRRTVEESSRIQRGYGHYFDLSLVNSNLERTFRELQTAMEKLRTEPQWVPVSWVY
Briefly: co-IP.

For a further experiment, the target named is T2, GST-MPP2-SH3GK (mouse) (UniProt Q9WV34).
T2 sequence: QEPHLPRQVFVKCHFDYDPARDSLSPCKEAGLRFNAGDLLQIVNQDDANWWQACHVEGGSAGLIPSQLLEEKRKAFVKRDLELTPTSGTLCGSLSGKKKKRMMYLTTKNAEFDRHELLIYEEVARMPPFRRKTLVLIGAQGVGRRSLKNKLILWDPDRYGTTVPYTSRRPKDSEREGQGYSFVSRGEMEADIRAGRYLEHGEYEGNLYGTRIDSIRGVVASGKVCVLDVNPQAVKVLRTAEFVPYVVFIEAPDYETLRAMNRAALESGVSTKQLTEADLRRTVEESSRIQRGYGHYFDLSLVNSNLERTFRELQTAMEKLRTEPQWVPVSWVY
Briefly: pull-down.

The target in experiment [2] is Untagged GABAA α1 (rat), overexpressed (rat) (UniProt P62813). Briefly: co-IP.
In experiment [3] the target is EGFP-tagged Pip5k1c (GFP-PIPK1 gamma 90) (UniProt O60331). Briefly: co-IP.
For experiment [4], the target named is T1, EGFP-MPP2 (mouse). In words: co-IP. This is another data set of the same source.

Where two headings read alike, the source gives them in different places. Results are given in words; binding and its absence hold for the method and conditions named. In cells and extracts the contact can be indirect. Some binding calls cover weakened binding; strength is not graded here. Sequences can lack the tags named with a protein.

As for HA-Gnao1 (from UniProt P59215-1 1-354), the binding entry with EGFP-MPP2 (mouse) [1] is “binds”.
Consider “endogenous GABAA α1 from rat brain crude synaptosomes (from UniProt P62813 28-455) (receptor)”, for which the binding result with GST-MPP2-SH3GK (mouse) is recorded as “binds”.
For “FLAG-tagged Ppp3ca (Calcineurin subunit) (from UniProt P63329-1 1-521)”, the binding result in the experiment with EGFP-MPP2 (mouse) [1] is “binds”.

B1: FLAG-tagged MPP2 (full length), in CHL V79 cells (protein, UniProt Q9WV34-1 1-552)
chain: MPVAATNSESAMQQVLDNLGSLPNATGAAELDLIFLRGIMESPIVRSLAKAHERLEETKLEAVRDNNLELVQEILRDLAELAEQSSTAAELARILQEPHFQSLLETHDSVASKTYETPPPSPGLDPTFSNQPVPPDAVRMVGIRKTAGEHLGVTFRVEGGELVIARILHGGMVAQQGLLHVGDIIKEVNGQPVGSDPRALQELLRSASGSVILKILPSYQEPHLPRQVFVKCHFDYDPARDSLSPCKEAGLRFNAGDLLQIVNQDDANWWQACHVEGGSAGLIPSQLLEEKRKAFVKRDLELTPTSGTLCGSLSGKKKKRMMYLTTKNAEFDRHELLIYEEVARMPPFRRKTLVLIGAQGVGRRSLKNKLILWDPDRYGTTVPYTSRRPKDSEREGQGYSFVSRGEMEADIRAGRYLEHGEYEGNLYGTRIDSIRGVVASGKVCVLDVNPQAVKVLRTAEFVPYVVFIEAPDYETLRAMNRAALESGVSTKQLTEADLRRTVEESSRIQRGYGHYFDLSLVNSNLERTFRELQTAMEKLRTEPQWVPVSWVY
B1: in experiment [2], the binding entry is recorded as “binds”.

B2: FLAG-tagged MPP2, in HEK293T cells (protein, UniProt Q9WV34-1 1-552)
chain: MPVAATNSESAMQQVLDNLGSLPNATGAAELDLIFLRGIMESPIVRSLAKAHERLEETKLEAVRDNNLELVQEILRDLAELAEQSSTAAELARILQEPHFQSLLETHDSVASKTYETPPPSPGLDPTFSNQPVPPDAVRMVGIRKTAGEHLGVTFRVEGGELVIARILHGGMVAQQGLLHVGDIIKEVNGQPVGSDPRALQELLRSASGSVILKILPSYQEPHLPRQVFVKCHFDYDPARDSLSPCKEAGLRFNAGDLLQIVNQDDANWWQACHVEGGSAGLIPSQLLEEKRKAFVKRDLELTPTSGTLCGSLSGKKKKRMMYLTTKNAEFDRHELLIYEEVARMPPFRRKTLVLIGAQGVGRRSLKNKLILWDPDRYGTTVPYTSRRPKDSEREGQGYSFVSRGEMEADIRAGRYLEHGEYEGNLYGTRIDSIRGVVASGKVCVLDVNPQAVKVLRTAEFVPYVVFIEAPDYETLRAMNRAALESGVSTKQLTEADLRRTVEESSRIQRGYGHYFDLSLVNSNLERTFRELQTAMEKLRTEPQWVPVSWVY
Turning to B2, in experiment [3], the binding result was “binds”.

B3: FLAG-tagged Arhgef2 (protein, UniProt Q5FVC2 1-985)
chain: MSRIESLTRARIDRSKEQATKTREKEKMKEAKDARYTNGHLFTTISVSGMTMCYACNKSITAKEALICPTCNVTIHNRCKDTLANCTKVKQKQQKAALLRNNTALQSVSLRSKTTTRERPTSAIYPSDSFRQSLLGSRRGLSSLSLAKSVSTTNIAGHFNDESPLGLRQILSQSTDSLNMRNRTLSVESLIDEGVEVFYNELMSDFEMDEKDFEADSWSLAVDSSFLQQHKKEVMKKQDVIYELIQTELHHVRTLKIMTRLFRTGMLEELQMEPEVVQGLFPCVDELSDIHTRFLSQLLERRRQALCPGSTRNFVIHRLGDLLISQFSGSNAEQMRKTYSEFCSRHTKALKLYKELYARDKRFQQFIRKMTRSAVLKRHGVQECILLVTQRITKYPVLINRILQNSHGIEEEYQDLAAALGLVKELLSNVDQDVHELEKEARLQEIYNRMDPRAQTPVPGKGPFGRDELLRRKLIHDGCLLWKTATGRFKDVLLLLMTDVLVFLQEKDQKYIFTSLDKPSVVSLQNLIVRDIANQAKGMFLISSGPPEMYEVHAASRDDRTTWIRVIQQSVRLCPSREDFPLIETEDKAYLRRIKTKLQQKNQALVELLQMNVELFAEMVHFQALKAGFIGMPPPTLPRGLFRLESFESLRGERLLKDALREVEGLKDLLLGPCVDLPLTAREPALPVEADSGSCPGVTANGEARTFNGSIELCRADSDSSQKDRNGNQLRSPQEEALQPLVNLYGLLQGLQAVVVQQERLMEALFPEGPERWEKLSRANSRDGEAGRAAVASVTPEKQATELALLQRQHSLLQEELRRCQRLGEERATEAGSLEARLRESEQARALLEREAEEIRRQLAALGQNEPLPAEAPWARRPLDPRRRSLPAGDALYLSFNPPQPSRGHDRLDLPVTVRSLHRPFDDREAQELGSPEDRLQDSSDPDTCSEEEVSSRLSPPHSPRDFTRMQDIPEETESRDGEPTASES
With B3, the binding entry with EGFP-MPP2 (mouse) [4] is given as “binds”.

B4: FLAG-tagged Farp1 (protein, UniProt F1LYQ8 1-1049)
chain: MGEIEQKPTPASRLGAPENSGISTLERGQKPPPTPSGKLMTVKIQMLDDTQEAFEVPQRAPGKVLFDAVCNHLNLVEGDYFGLEFPDHRKIVVWLDLLKPIVKQIRRPKHVLVKFVVKFFPPDHTQLQEELTRYLFALQVKQDLAQGRLTCNDTSAALLISHIVQSEIGDFDEALDREHLAKNKYVPQQDALEDKIVEFHHSHIGQTPAESDFQLLEVARRLEMYGIRLHPAKDREGTKINLAVANTGILVFQGFTKINAFNWAKVRKLSFKRKRFLIKLRPDVNSSYQDTLEFLMAGRDFCKSFWKICVEHHAFFRLFEEPKPKPKPVLFSRGSSFRFSGRTQKQVLDYVKEGGHKKVQFERKHSKIHSTRSLVSQPTAPNSEVPKQSPQSASLTFGEGTESPSAQSCQQAKETKVCTLEPGPRQSPALSKSPSGSKAADGTAAAAPPEEEDEEEGGKDGIRPSNPQPPQPSTGSLTGSPHLSELSINSQGGAAPANVTLSPNLSPDNKQASPLISPLLNDQACPRTDDEEEGRRKRFPTDKAYYIAKEVSTTERTYLKDLEVIASWFQSTVSKEDSMPEALKSLIFPNFEPLHKFHTNFLKEIEQRLALWEGRSNAHIRGDYQRIGDVMLKNIQGMKHLAAHLWKHSEALEALETSIKGSRRLEHFCRDFELQKVCYLPLNTFLLRPLHRLMHYKQVLERLCKHHPPNHADFRDCRAALAEITEMVAQLHGTMIKMENFQKLHELKKDLIGIDNLVIPGREFIRLGSLSKLSGKGLQQRMFFLFNDVLLYTSRGLTASNQFKVHGQLPLYGMTIEESEEEWGVPHCLTLRGQRQSIIVAASSRSEMEKWLEDIQMAIDLAEKSNGPTPELLASSPPDNKSPDEATAADQESEDDLSASRTSLERQAPHRGNTMVHVCWHRSTSVSMVDFSIAVENQLSGNLLRKFKNSNGWQKLWVVFTNFCLFFYKSHQDSHPLASLPLLGYSLTIPSESENIHKDYVFKLHFKSHVYYFRAESEYTFERWMEVIRSATSSASRAHSLSHKESHLY
Consider B4, for which the binding entry in the experiment with EGFP-MPP2 (mouse) [4] was “binds”.
